Source: the supplement of paper PMC10849652
The list shows a part of the results.

Amino acid sequences for entries named in this document (tags omitted). A change or cut given only in a name is not applied to a line headed by its entry.
UniProt Q8IUI8: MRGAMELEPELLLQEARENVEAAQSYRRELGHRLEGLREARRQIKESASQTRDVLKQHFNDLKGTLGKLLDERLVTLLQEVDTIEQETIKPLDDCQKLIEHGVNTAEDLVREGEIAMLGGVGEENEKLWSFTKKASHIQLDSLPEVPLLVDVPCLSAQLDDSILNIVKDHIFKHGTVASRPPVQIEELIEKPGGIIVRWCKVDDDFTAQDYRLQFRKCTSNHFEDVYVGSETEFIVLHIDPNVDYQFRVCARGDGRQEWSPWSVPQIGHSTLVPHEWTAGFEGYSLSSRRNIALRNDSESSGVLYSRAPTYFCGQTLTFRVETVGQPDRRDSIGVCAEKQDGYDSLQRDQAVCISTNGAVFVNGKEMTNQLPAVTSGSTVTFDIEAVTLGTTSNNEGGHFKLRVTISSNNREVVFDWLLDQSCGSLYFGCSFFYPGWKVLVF
UniProt Q9Y2Z9: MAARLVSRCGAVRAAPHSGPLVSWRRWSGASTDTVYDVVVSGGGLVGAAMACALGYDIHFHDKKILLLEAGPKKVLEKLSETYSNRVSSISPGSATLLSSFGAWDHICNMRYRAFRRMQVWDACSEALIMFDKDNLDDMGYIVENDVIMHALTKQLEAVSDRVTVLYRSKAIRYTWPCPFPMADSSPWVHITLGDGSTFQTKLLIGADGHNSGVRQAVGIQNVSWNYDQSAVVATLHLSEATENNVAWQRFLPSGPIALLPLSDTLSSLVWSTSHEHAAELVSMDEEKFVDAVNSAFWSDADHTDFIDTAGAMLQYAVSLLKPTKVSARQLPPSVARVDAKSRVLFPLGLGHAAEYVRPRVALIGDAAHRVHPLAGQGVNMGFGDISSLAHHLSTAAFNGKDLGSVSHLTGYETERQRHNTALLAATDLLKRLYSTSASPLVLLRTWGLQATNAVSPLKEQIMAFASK
UniProt Q5TZA2: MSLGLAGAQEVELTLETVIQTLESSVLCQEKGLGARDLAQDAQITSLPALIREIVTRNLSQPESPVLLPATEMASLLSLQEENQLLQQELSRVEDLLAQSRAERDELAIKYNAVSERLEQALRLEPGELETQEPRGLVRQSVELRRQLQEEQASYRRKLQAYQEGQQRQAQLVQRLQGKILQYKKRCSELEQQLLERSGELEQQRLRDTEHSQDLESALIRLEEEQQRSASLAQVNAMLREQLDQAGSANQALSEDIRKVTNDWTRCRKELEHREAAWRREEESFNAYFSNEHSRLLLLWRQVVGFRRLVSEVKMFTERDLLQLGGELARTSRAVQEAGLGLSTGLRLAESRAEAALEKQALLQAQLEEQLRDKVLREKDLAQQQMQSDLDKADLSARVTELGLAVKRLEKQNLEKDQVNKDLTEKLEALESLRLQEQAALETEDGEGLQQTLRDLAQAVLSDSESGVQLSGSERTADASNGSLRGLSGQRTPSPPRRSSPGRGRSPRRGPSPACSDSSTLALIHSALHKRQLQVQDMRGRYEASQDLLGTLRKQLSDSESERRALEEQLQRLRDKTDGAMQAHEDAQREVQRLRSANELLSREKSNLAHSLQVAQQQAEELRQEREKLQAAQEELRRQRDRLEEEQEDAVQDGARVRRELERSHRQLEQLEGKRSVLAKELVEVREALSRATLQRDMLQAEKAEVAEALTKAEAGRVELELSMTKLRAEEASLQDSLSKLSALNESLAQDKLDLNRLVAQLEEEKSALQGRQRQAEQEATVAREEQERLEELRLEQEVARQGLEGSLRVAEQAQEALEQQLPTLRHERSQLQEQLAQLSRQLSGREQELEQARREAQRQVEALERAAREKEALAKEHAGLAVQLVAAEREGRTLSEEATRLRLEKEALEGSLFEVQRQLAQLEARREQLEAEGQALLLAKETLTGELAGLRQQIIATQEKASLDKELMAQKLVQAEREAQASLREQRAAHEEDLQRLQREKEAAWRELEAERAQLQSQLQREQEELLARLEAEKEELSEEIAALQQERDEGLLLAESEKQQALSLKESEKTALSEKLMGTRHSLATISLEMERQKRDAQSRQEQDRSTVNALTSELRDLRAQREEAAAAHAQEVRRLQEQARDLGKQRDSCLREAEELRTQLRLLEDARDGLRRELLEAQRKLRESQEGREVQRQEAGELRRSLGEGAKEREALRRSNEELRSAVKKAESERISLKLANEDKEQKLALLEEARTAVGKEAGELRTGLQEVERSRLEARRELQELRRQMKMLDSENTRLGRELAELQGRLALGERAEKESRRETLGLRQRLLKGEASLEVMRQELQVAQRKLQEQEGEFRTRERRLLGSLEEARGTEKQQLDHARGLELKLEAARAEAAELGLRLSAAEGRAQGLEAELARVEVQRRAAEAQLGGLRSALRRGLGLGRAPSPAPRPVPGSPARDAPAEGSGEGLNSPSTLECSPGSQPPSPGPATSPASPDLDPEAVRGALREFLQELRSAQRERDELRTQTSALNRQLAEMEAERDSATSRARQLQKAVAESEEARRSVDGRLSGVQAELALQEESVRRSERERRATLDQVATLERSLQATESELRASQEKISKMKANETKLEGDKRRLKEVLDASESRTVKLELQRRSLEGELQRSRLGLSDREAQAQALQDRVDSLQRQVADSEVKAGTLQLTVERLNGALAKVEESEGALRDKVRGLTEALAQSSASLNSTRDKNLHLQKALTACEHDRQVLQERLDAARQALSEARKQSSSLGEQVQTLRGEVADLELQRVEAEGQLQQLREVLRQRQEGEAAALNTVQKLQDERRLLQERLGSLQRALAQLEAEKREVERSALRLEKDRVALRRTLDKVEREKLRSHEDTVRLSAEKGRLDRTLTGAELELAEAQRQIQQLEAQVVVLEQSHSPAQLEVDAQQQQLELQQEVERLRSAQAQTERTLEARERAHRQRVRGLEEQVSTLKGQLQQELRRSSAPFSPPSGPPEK
UniProt P41240: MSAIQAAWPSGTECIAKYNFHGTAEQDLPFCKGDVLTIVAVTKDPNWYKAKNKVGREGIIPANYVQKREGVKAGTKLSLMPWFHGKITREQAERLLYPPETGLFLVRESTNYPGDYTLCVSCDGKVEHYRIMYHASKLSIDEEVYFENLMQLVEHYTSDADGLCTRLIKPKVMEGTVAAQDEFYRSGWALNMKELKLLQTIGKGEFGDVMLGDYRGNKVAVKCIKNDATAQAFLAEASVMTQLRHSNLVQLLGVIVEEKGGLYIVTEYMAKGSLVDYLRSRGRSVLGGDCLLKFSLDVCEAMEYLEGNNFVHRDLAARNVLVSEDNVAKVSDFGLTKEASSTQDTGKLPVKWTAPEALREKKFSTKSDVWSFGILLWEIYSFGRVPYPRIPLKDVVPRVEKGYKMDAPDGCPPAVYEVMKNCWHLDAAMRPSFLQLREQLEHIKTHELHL
UniProt P46108: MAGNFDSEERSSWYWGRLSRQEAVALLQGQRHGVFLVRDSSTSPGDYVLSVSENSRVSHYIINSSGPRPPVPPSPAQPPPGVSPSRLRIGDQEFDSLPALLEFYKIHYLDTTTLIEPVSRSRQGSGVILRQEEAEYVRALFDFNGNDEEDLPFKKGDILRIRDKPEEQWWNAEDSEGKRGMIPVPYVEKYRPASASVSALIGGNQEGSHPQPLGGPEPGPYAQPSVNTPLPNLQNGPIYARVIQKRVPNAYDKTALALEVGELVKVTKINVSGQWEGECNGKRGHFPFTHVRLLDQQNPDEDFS
UniProt P50416: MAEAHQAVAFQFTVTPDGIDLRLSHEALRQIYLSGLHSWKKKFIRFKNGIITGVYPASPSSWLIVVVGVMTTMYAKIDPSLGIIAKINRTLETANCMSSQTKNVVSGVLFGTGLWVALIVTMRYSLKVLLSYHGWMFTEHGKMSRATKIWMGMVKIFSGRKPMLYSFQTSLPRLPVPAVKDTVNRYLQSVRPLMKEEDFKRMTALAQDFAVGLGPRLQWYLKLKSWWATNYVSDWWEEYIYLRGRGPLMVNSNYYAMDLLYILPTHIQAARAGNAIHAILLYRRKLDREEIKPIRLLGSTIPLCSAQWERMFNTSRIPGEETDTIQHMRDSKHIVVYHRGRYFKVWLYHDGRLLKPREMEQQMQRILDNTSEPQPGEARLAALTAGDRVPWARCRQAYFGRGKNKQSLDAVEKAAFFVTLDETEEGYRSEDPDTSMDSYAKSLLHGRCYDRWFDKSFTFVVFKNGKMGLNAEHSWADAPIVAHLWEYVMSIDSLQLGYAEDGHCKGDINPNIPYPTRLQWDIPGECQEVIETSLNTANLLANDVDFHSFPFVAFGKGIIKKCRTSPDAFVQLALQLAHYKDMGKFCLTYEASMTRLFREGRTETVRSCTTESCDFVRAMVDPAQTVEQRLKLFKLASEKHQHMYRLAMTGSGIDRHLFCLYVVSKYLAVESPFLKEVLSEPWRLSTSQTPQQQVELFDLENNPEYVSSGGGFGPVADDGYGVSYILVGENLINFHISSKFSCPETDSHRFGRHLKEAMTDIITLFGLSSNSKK
UniProt P31146: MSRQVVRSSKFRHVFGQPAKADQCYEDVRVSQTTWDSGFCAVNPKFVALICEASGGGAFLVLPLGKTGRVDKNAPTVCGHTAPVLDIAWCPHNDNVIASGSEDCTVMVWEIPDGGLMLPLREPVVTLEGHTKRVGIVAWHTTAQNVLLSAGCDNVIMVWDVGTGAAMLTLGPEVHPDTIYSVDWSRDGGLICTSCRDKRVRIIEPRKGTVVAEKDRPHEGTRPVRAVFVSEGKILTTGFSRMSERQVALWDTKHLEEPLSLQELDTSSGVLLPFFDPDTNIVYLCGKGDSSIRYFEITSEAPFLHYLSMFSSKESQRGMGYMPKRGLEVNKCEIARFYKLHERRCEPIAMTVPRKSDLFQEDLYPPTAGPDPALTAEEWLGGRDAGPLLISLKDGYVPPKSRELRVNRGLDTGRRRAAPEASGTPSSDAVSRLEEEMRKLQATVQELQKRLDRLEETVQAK
UniProt P14406, whole entry, looked up: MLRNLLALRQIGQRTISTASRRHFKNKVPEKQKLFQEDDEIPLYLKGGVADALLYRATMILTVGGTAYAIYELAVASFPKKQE
UniProt Q9UBW8: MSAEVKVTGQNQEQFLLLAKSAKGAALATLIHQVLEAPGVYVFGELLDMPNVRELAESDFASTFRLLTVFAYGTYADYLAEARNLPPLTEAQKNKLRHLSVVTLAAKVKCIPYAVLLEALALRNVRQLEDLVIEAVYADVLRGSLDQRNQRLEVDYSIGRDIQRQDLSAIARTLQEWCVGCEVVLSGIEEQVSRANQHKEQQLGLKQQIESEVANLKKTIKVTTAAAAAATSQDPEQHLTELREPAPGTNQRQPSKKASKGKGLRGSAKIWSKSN
UniProt P61923: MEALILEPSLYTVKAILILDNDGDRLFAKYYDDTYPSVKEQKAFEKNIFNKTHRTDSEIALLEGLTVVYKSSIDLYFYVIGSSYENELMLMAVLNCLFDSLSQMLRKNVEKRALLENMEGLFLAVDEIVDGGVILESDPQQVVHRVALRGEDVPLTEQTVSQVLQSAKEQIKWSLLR
UniProt Q9H3G5: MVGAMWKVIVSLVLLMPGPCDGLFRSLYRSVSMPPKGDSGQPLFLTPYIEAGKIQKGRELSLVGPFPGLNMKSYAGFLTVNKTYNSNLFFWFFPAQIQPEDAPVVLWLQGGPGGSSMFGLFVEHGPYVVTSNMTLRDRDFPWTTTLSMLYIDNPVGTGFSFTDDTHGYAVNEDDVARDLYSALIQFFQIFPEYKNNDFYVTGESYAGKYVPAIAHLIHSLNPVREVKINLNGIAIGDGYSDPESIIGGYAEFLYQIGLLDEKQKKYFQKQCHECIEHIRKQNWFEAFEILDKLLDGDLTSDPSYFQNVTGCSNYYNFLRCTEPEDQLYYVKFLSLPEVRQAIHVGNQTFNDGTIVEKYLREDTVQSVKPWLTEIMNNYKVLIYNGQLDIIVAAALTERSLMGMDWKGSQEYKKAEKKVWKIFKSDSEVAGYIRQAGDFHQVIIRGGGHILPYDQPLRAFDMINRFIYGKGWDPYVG
UniProt Q8N8Q8: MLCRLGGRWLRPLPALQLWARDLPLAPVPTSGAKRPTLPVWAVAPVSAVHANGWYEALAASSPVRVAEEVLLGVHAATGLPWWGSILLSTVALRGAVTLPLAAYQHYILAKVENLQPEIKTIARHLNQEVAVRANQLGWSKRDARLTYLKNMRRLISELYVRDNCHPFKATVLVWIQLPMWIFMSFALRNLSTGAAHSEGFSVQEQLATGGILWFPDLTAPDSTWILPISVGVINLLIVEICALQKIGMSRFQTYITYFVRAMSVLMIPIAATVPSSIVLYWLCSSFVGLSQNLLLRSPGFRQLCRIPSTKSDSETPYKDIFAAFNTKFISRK
UniProt Q86VX2, whole entry, looked up: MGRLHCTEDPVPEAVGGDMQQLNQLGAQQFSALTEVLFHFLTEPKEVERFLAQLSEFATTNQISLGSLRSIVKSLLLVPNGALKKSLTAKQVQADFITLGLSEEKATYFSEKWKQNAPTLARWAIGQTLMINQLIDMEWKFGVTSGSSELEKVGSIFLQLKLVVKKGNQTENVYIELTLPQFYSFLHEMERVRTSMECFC

How the values were obtained:
Assay in all cases: log2 fold change, soluble protein after heating vs DMSO (PISA); higher = thermal stabilisation; K562 cells, 10 uM, 30 min; active = over 0.2 and 3.5 SD of the protein, either way, in both replicates (recomputed)
[1] = compound: C#Cc1cccc(Nc2ncnc3cc(OCCOC)c(OCCOC)cc23)c1 [erlotinib]
Outline: (§1)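 Soluble protein was quantified by TMTpro 16plex LC-MS/MS after channel sums were equalised. It was obtained as the supernatant after 21,000xg for 90 min from pooled aliquots of K562 cells (2×10^6 cells/mL, 10 μM compound, 30 min) heated for 3 min across 48°C-58°C and extracted in PBS with 0.5% NP-40 at 4°C. Thermal stability values are relative to control samples and come from duplicates. They are given as log2 fold changes.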

[2] = compound: C/C(=N\NC(=O)C1=CC(=CC=C1)S(=O)(=O)N2CCOCC2)/C3=C(C=CC(=C3)Cl)O
Outline: as §1

[3] = compound: C1=CC(=C(C=C1Cl)C2=NC3=NC=CN=C3C(=N2)NC4=CC=NC=C4)F
Outline: as §1

[4] = compound: C1=CC(=CC=C1C2=NC3=C(N2)C=C(C=C3)C(=O)N)OC4=CC=C(C=C4)Cl
Outline: as §1

[5] = compound: C1=CC2=C(C=CC(=C2)/C=C\3/C(=O)NC(=NCC4=CC=CS4)S3)N=C1
Outline: as §1

[6] = compound: C1=CC2=NC=CN=C2C=C1/C=C/3\C(=O)NC(=O)S3
Outline: as §1

[7] = compound: C1=CC=C(C=C1)C2=NC(=C(N2)C3=CC=NC=C3)C4=CC(=C(C=C4)Cl)O
Outline: as §1

[8] = compound: C1=CC=C2C(=C1)C3=NNC4=CC=CC(=C43)C2=O
Outline: as §1

[9] = compound: C1CCN(C1)C(=O)NC2=CC=CC(=C2)NC3=NC=C(C(=N3)NCCC4=CN=CN4)Br
Outline: as §1

[10] = compound: C1CN(CCC1(CC2=CC=C(C=C2)Cl)N)C3=NC=NC4=C3C=CN4
Outline: as §1

Measured: log2 fold change

CRACR2A isoform 2 (UniProt Q9BSW2)
inactive: [1] 0.165 | [2] -0.004 | [3] 0.108 | [4] -0.135 | [5] -0.019 | [6] -0.009 | [7] 0.029 | [8] 0.038 | [9] -0.039 | [10] 0.007

CRLF3 (UniProt Q8IUI8)
inactive: [1] 0.09 | [2] -0.034 | [3] 0.036 | [4] -0.015 | [5] 0.076 | [6] 0.019 | [7] -0.018 | [8] -0.028 | [9] 0.027 | [10] -0.04

CRYM-AS1 (UniProt A6NIL9)
inactive: [1] 0.13 | [2] -0.214 | [3] 0.027 | [4] 0.23 | [5] 0.089 | [6] -0.725 | [7] 0.024 | [8] 0.073 | [9] -0.27 | [10] 0.108

COQ6 (UniProt Q9Y2Z9)
inactive: [1] 0.013 | [2] 0.051 | [3] 0.036 | [4] -0.015 | [5] 0.015 | [6] -0.045 | [7] 0.14 | [8] 0.119 | [9] 0.025 | [10] -0.026

CROCC (UniProt Q5TZA2)
inactive: [1] 0.07 | [2] -0.111 | [3] 0.08 | [4] -0.068 | [5] 0.244 | [6] 0.003 | [7] -0.028 | [8] 0.097 | [9] 0.028 | [10] -0.03

CSK (UniProt P41240)
inactive: [1] 0.023 | [2] 0.031 | [3] -0.038 | [4] 0.005 | [5] 0.056 | [6] -0.022 | [7] 0.024 | [8] -0.02 | [9] -0.034 | [10] -0.05

COQ8A (UniProt Q8NI60)
inactive: [1] -0.056 | [2] 0.048 | [3] -0.009 | [4] 0.048 | [5] -0.048 | [6] 0.066 | [7] -0.006 | [8] 0.021 | [9] -0.041 | [10] -0.037

COMMD4 (UniProt Q9H0A8)
inactive: [1] 0.041 | [2] 0.139 | [3] 0.055 | [4] 0.057 | [5] 0.013 | [6] 0.026 | [7] 0.046 | [8] 0.121 | [9] -0.116 | [10] -0.029

CRK (UniProt P46108)
inactive: [1] -0.022 | [2] 0.035 | [3] -0.002 | [4] -0.012 | [5] -0.011 | [6] 0.03 | [7] -0.076 | [8] 0.049 | [9] 0.016 | [10] 0.001

COPS3 (UniProt Q9UNS2)
inactive: [1] -0.019 | [2] 0.035 | [3] 0.091 | [4] 0.016 | [5] 0.055 | [6] 0.01 | [7] -0.009 | [8] 0.007 | [9] 0.014 | [10] 0.014

COLGALT1 (UniProt Q8NBJ5)
inactive: [1] -0.053 | [2] -0.03 | [3] -0.045 | [4] 0.033 | [5] -0.057 | [6] 0.004 | [7] -0.014 | [8] 0.062 | [9] -0.003 | [10] -0.018

CPT1A (UniProt P50416)
inactive: [1] -0.008 | [2] 0.042 | [3] -0.111 | [4] 0.008 | [5] -0.028 | [6] -0.096 | [7] 0 | [8] 0.081 | [9] -0.055 | [10] 0.076

CPEB2 isoform 9 (UniProt Q7Z5Q1)
inactive: [1] 0.206 | [2] 0.16 | [3] 0.037 | [4] 0.207 | [5] -0.044 | [6] -0.066 | [7] 0.101 | [8] -0.084 | [9] 0.061 | [10] 0.023

CORO1A (UniProt P31146)
inactive: [1] -0.009 | [2] 0.069 | [3] 0.034 | [4] -0.003 | [5] 0.052 | [6] 0.027 | [7] 0.01 | [8] -0.006 | [9] -0.059 | [10] -0.01

CPSF1 (UniProt Q10570)
inactive: [1] -0.004 | [2] -0.057 | [3] -0.108 | [4] 0.039 | [5] -0.012 | [6] 0.02 | [7] -0.062 | [8] -0.045 | [9] 0.041 | [10] -0.037

COX7A2 (UniProt P14406)
inactive: [1] 0.004 | [2] -0.029 | [3] 0.119 | [4] -0.027 | [5] 0.121 | [6] 0.056 | [7] 0.004 | [8] -0.018 | [9] -0.012 | [10] 0.044

CSNK1G3 (UniProt Q9Y6M4)
inactive: [1] 0.021 | [2] -0.102 | [3] -0.164 | [4] 0.01 | [5] -0.03 | [6] 0.073 | [7] 0.079 | [8] -0.028 | [9] -0.044 | [10] -0.078

CORO1C isoform 3 (UniProt Q9ULV4)
inactive: [1] -0.012 | [2] -0.011 | [3] 0.042 | [4] -0.061 | [5] -0.071 | [6] 0.069 | [7] 0.044 | [8] 0.022 | [9] -0.013 | [10] -0.057

COPS7A (UniProt Q9UBW8)
inactive: [1] -0.008 | [2] -0.015 | [3] 0.03 | [4] -0.035 | [5] 0.037 | [6] 0.02 | [7] 0.014 | [8] 0 | [9] 0.009 | [10] 0.031

COX4I1 (UniProt P13073)
inactive: [1] -0.051 | [2] -0.02 | [3] 0.007 | [4] 0.029 | [5] -0.026 | [6] 0.02 | [7] 0.004 | [8] 0.011 | [9] 0.016 | [10] 0.043

COPB2 (UniProt P35606)
inactive: [1] -0.02 | [2] 0.031 | [3] 0.067 | [4] -0.01 | [5] 0.004 | [6] 0.019 | [7] 0.007 | [8] -0.013 | [9] -0.003 | [10] 0.05

CS (UniProt O75390)
inactive: [1] 0.028 | [2] 0.035 | [3] 0.033 | [4] 0.002 | [5] 0.051 | [6] -0.009 | [7] 0.072 | [8] -0.064 | [9] -0.015 | [10] 0.035

COPZ1 isoform 4 (UniProt P61923)
inactive: [1] -0.08 | [2] 0.101 | [3] 0.188 | [4] -0.001 | [5] 0.087 | [6] 0.085 | [7] 0.078 | [8] 0.066 | [9] -0.063 | [10] -0.134

COQ3 (UniProt Q9NZJ6)
inactive: [1] -0.035 | [2] 0.169 | [3] 0.053 | [4] 0.011 | [5] -0.008 | [6] 0.024 | [7] 0.04 | [8] 0.153 | [9] -0.111 | [10] 0.044

CPVL (UniProt Q9H3G5)
inactive: [1] 0.355 | [2] -0.101 | [3] 0.057 | [4] -0.128 | [5] -0.011 | [6] 0.106 | [7] -0.118 | [8] 0.045 | [9] 0.114 | [10] 0.072

CPT2 (UniProt P23786)
inactive: [1] -0.096 | [2] -0.087 | [3] 0.068 | [4] 0.636 | [5] 0.07 | [6] 0.076 | [7] 0.163 | [8] 0.066 | [9] 0.004 | [10] 0.23

2 entries drawn at random from those above:
CRACR2A isoform 2 (UniProt Q9BSW2)
inactive: [1] 0.165 | [2] -0.004 | [3] 0.108 | [4] -0.135 | [5] -0.019 | [6] -0.009 | [7] 0.029 | [8] 0.038 | [9] -0.039 | [10] 0.007

COMMD4 (UniProt Q9H0A8)
inactive: [1] 0.041 | [2] 0.139 | [3] 0.055 | [4] 0.057 | [5] 0.013 | [6] 0.026 | [7] 0.046 | [8] 0.121 | [9] -0.116 | [10] -0.029

(further entries)

COX18 (UniProt Q8N8Q8)
inactive: [1] 0.002 | [2] 0 | [3] 0.033 | [4] -0.03 | [5] 0.001 | [6] 0.021 | [7] -0.03 | [8] -0.082 | [9] 0.017 | [10] 0.031

CRTC2 (UniProt Q53ET0)
inactive: [1] 0.194 | [2] 0.151 | [3] 0.039 | [4] 0.035 | [5] 0.093 | [6] 0.073 | [7] -0.129 | [8] -0.14 | [9] -0.233 | [10] 0.08

COMMD7 (UniProt Q86VX2)
inactive: [1] -0.046 | [2] 0.024 | [3] -0.063 | [4] 0.048 | [5] 0.025 | [6] 0.061 | [7] -0.039 | [8] -0.012 | [9] -0.063 | [10] 0.017

CPSF6 isoform 2 (UniProt Q16630)
inactive: [1] 0.023 | [2] 0.079 | [3] -0.072 | [4] 0.122 | [5] -0.04 | [6] -0.026 | [7] -0.002 | [8] -0.016 | [9] -0.021 | [10] -0.135
